In patent US4966169A, “Process for manufacturing cigarettes” (priority 1988, dated 1990):

Experiment: Transfer of cyclohexanol from tobacco into smoke (standard smoking machine, Cambridge filter pads, GC)
[1] = hand-laced, 8750 micrograms per cigarette
[2] = production run, 620 micrograms per cigarette

In the case of `OC1CCCCC1` [Cyclohexanol], the smoked concentration [1] is reported as 2778 milligrams per cubic meter, the “smoked concentration as % of TLV” value [1] is reported as 1389% and the “factor by which delivery exceeded total concentrations of TSNA's in the cigarette” value [2] is reported as 132. For the same compound, the “smoked concentration as % of TLV” value [2] was 99%.
